According to publication doi:10.1101/2024.12.01.626218:
No constants are given. Whether binding was seen depends on the method and setting. Binding seen in cells or lysates may run through a third protein. These calls come from enrichment with a bait or labelling near it, and not all partners need be listed.

Protein sequences, listed by entry. Tags and fused reporters are not part of them.
UniProt Q8VIG6: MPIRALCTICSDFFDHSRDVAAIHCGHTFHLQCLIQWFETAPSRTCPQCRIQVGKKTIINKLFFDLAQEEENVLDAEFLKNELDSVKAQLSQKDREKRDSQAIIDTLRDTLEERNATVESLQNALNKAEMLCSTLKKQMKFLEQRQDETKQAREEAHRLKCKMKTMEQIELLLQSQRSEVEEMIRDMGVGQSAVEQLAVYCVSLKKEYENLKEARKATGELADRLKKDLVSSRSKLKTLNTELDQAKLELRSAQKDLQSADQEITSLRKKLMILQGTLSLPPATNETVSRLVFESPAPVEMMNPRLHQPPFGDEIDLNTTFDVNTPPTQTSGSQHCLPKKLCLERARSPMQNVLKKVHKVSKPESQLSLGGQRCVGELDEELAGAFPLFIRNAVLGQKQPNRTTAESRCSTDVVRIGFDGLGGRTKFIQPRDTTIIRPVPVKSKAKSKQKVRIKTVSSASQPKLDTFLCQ
UniProt Q3UI43: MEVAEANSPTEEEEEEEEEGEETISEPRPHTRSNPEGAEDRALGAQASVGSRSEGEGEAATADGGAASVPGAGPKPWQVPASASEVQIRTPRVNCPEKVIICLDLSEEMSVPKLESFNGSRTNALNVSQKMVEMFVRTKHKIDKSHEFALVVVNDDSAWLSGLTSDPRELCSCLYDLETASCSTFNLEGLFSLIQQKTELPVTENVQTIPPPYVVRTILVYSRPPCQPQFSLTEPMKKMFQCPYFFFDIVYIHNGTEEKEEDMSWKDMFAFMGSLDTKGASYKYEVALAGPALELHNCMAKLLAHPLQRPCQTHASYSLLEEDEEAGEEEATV
UniProt Q8K3W0: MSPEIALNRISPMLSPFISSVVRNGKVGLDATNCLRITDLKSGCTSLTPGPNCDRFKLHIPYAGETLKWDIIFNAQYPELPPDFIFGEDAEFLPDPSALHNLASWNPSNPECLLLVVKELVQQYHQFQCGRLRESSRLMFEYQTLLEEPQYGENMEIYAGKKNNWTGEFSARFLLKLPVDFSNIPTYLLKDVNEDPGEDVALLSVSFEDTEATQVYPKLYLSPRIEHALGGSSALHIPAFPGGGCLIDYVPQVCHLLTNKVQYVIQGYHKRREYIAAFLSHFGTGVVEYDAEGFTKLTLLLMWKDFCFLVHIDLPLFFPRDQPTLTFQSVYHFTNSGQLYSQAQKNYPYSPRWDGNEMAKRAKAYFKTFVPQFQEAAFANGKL
UniProt P46737: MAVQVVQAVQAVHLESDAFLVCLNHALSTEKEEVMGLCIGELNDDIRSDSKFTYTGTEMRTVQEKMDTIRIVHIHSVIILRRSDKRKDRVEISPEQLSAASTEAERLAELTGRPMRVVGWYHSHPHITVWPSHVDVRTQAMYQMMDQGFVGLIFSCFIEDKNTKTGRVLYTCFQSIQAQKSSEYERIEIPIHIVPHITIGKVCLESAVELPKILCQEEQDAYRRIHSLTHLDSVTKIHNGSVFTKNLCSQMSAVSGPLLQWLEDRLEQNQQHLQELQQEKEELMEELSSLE

B1: TTF2 (Transcription Termination Factor 2) (enzyme, UniProt Q5NC05 1-1138)
chain: MDLVKCPEHGDACFLKTGVRDGPNKGKSFYVCRTNTCGFVQATDIPVSHCLLHEEFVVELQGLFLPQDKKEWRLFFRCARTKAEGKQWCGNVPWRQDPNPKELSVTSKPQQPSESQLHSPSQPRNPFRVLNKNQKTLERKQFVEEGERKTADKKLRENNEQLLDQRKEQKPKSNSRMEKDPSSDLVATRQSGGDREEQEKSKFQPKTKKAEGMASKQGHGEVLQGIPKGPHMSESESRGVPNKPETLREKETQLLVPSVPGQNPESKVQKEGHVSREPLKNGEAPSAQVTQRGLAQGPLQGPSKTWRPVPEAPAAPELCSGMAHHATSSSEDSEDDGVSSRPGSPLLFDSTVDSQKKGSLQHSDQSVQRQMPAASGVSKKGDSSDPAAQRANLTTQLKQKKGTLAAVNIQALPDKGEKLLKQIQALEDALSALALSPEQGTKEKCSAQEPEQSNITKAAAAPLHLVPPQPLPRPLIQPASSLGLKAGRQETPEGASQCSGGHMNQHHLYNVWKITSEAIDELHRSLKSCPGETAVAEDPAGLKVPLLLHQKQALAWLLWRESQKPQGGILADDMGLGKTLTMIALILTKKNQQKSKEKERSEPVTWLSKNDSSVFTSSGTLIVCPASLIHHWKNEVEKRVTSNRLRIYLYHGPNRSRHAKVLSTYDIVITTYSLLAKEIPTTKQEGEVPGANLSVEGTSAPLLQVVWARIILDEAHNVKNPRVQTSIAVCKLQAQARWAVTGTPIQNNLLDMYSLMKFLRCSPFDEFSLWKSQVDNGSMKGGERLSILTKSLLLRRTKDQLDSTGKPLVALPARRCQLHRLKLSEDERAVYDIFLARSRSALQSYLKRQEGRGSHHGRSPDNPFSRVAQEFGSSVSQGCPAADSQRPSTVHVLSQLLRLRQCCCHLSLLKSALDPTELESEGLVLSLEEQLSALTLSKVDVSEPSPTVSLNGTCFKAELFDDTRRSTKVSSLLAELEAIQKGPGSQKSVIVSQWTSMLQVVALHLKKNRLTYATIDGSVNPKQRMDLVEAFNHSQGPQVMLISLLAGGVGLNLTGGNHLFLLDMHWNPSLEDQACDRIYRVGQKKDVVIHRFVCEGTVEEKILQLQEKKKDLAKQVLSGSEGPVTKLTLADLKILFGI
B2: RAP80 (protein, UniProt Q5U5Q9 1-727)
chain: MPRRKKKIKEASESQNLEKKDLETSSCVSIKKKRRLEDLLIVISDSDGEETKEENGLQKTKTKQSNRSKCLAKRKVAHMSEEEQFALALKMSEQEAREVNNQEEKEEELLRKAIAESLNSCWSSAASATRSRPLAAELSSHSHQENTKDSGTTEGVWQLVPPSLCKGSHVSQGNEAEQRKEPWDHNENTEEEPVSGSSGSWDQSSQPVFENENVKCFDRCTGHLAEHTQCGKPQESTGSGYAFSKAVQGRGDTSRQCLPIPADTKGLQDTGGTVHYYWGIPFCPAGVDPNQYTNVILCQLEVYQKSLKMAQRQLVKKRGFGEPVLPRPPFLIQNECGQEDQTSDKNEGISEDMGDEAKEERQESRASVWHSETKDFQKSPIKSLKQKLLLEEEPTTSRGQSSQGLFVEETSEEGLKSSEGDNSVPTTQSIAALTSKRSLVLMPESSAEEITVCPETQLSFLEPLDLNREDSPDSRELPIEVRMAVGDKQVANREDCMKENPPPAVSSSTRVSCPLCNQDFPPTKIEQHAMYCNGLMEQETVLTRRRREAKNKSDGRTAAQPALDANRKEKCYLCKSLVPLGEYQCHVEACLQLAKVDREDGIEGTRRPRVCAPVEGKQQQRLKKSKDKGHSQGRLLSLLEQSEHRTTGVEKKPKYSEVRTFRMPSPEVEEASCSREMQSTLSQLNLNESPIKSFVPVSEATNCLVDFKEQFAFRSRTKSGRGRRRKS
B3: ABRAXAS1 (protein, UniProt Q8BPZ8 1-407)
chain: MEGESTLGVLSGFVLGALTFHHLNTDSDTEGFLLGEMKGEAKNSITDSQMDNVKVVYTIDIQKYIPCYRLFSFYNSLGEVNEHALKKVLSNVRKTVVGWYKFRRHSDQIMTFREQLLHRNLQTHLSSPELVFLLLTPSITTESCSTHCLEHALYKPQRGLFHRVPLVVTNLGMSDQLGYKTEPASCTSTVFSRAVRTHSSQFFNEDGSLKEVHKINEMYAAVQEELKSICQKVEQSEREVEKLLMDVNQLKEVRRTQQARATGAGEKNVQRNPQENILLCQALRTFFPESEVLHSCVISLKNRHISPSGCNVNHHVDVVDQLTLMVEYVYSPEASPVPTAQLRKRKALDTHDQGSVKRPRLLETESRPSVAASRSRHQDKASSSSLDIDIEMGSPEDDADYPRSPTF

Target: TRAIP-i5FLAG (mouse) (UniProt Q8VIG6)
Assay: affinity purification with mass spectrometry

binding, binds:
BABAM1 (from UniProt Q3UI43 1-333), BABAM2 (from UniProt Q8K3W0 1-383), BRCC36 (from UniProt P46737 1-291)

Target: TRAIP-5FLAG (mouse) (UniProt Q8VIG6)
Assay: affinity purification with mass spectrometry

binding, binds:
BABAM1 (from UniProt Q3UI43 1-333), BABAM2 (from UniProt Q8K3W0 1-383), BRCC36 (from UniProt P46737 1-291)

Target: TRAIP-i5FLAG (mouse) (UniProt Q8VIG6)
Assay: affinity purification with mass spectrometry
Remark: another data set of the same source

binding, binds:
B1, B2, B3

Target: TRAIP-5FLAG (mouse) (UniProt Q8VIG6)
Assay: affinity purification with mass spectrometry
Remark: another data set of the same source

binding, binds:
B1, B2, B3
